# Values quoted from earlier work in patent US20220257599A1, “METHODS USEFUL IN TREATING CANCERS HARBORING A KRAS OR HRAS MUTATION OR AMPLIFICATION” (Memorial Sloan Kettering Cancer Center, priority 2019, published 2022).
# For at least one compound, name, drawing or mass did not settle the structure.
# Conditions: cited from earlier work
smiles,measurement,value
"CCCCCCCCCCCCCCCC(=O)OC[C@@H](O)COP(=O)([O-])OCC[N+](C)(C)C [lysoPC, 16:0 lysoPC]",critical micelle concentration (CMC),8 to 10 µM
